Data: article PMC6779753
Results are given in words; binding and its absence hold for the method and conditions named. In cells and extracts the contact can be indirect. Some entries that bind do so weakly or less than the wild type.

Sequences of proteins named here, by UniProt entry; tags and fusion partners are left off. Residues count along the entry.
UniProt Q96EB6: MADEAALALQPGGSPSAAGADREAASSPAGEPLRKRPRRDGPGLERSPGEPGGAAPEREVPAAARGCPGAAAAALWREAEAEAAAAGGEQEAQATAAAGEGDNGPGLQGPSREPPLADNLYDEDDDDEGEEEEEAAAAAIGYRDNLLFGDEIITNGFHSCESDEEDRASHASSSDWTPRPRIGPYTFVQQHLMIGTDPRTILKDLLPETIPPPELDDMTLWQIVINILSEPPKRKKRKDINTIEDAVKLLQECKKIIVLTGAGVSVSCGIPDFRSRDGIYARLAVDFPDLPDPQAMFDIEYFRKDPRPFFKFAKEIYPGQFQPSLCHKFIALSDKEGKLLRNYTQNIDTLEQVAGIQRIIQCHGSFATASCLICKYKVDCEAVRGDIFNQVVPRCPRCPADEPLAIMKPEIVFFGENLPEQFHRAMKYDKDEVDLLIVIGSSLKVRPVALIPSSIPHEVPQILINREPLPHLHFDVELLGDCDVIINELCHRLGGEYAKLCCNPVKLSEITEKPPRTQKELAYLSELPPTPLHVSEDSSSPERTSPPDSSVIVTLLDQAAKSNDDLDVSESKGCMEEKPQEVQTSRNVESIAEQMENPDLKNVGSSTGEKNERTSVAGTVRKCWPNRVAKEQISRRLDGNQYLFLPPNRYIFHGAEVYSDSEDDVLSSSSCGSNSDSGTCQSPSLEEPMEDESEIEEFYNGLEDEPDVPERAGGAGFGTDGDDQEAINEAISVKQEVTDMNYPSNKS
UniProt Q8N163, residues 139-923: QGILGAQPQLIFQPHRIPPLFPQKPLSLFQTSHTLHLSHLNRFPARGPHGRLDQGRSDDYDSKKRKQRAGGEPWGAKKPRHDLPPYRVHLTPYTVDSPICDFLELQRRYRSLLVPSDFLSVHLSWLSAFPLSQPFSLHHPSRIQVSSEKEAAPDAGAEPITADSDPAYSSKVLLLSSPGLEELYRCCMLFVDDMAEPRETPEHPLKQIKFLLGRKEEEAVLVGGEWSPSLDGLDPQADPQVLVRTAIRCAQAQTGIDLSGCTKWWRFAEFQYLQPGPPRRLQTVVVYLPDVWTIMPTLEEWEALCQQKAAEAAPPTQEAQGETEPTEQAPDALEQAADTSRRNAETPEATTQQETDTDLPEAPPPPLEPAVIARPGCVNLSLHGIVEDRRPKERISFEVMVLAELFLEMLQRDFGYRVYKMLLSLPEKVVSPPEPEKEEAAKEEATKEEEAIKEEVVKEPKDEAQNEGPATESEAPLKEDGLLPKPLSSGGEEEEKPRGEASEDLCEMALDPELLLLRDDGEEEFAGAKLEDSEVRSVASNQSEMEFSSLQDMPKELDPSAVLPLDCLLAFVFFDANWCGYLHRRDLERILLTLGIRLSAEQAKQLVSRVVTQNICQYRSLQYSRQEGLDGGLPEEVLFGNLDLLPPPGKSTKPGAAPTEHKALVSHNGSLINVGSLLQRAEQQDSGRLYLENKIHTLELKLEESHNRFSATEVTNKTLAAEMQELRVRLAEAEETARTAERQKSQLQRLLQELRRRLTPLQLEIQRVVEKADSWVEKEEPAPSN
UniProt Q8VDP4: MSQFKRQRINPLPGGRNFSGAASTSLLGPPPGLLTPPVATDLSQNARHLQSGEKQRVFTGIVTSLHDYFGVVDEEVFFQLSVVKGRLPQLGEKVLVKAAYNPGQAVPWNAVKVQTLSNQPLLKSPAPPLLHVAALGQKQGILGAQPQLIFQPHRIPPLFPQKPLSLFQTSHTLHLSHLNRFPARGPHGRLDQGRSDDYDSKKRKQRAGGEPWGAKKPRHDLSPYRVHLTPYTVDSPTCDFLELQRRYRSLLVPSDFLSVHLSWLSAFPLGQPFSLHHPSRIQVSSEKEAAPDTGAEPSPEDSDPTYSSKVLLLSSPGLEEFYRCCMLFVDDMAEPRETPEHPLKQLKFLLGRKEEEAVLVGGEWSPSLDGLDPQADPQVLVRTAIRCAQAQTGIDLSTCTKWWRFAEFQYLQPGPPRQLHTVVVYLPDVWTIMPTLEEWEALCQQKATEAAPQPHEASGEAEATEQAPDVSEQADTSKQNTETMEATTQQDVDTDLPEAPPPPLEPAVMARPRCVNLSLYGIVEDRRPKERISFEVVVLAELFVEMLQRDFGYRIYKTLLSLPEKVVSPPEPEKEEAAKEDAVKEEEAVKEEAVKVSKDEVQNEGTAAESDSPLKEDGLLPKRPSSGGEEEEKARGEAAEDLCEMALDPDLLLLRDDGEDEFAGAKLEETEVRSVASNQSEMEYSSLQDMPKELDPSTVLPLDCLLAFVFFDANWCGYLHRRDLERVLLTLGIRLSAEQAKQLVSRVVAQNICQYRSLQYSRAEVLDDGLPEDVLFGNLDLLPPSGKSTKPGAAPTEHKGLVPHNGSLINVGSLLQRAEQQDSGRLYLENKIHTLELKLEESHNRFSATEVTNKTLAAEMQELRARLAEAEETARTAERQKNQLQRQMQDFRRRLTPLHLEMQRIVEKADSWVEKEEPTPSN

What was measured:
[1] = target: endogenous SIRT1 of 293 T cells (human (endogenous in 293 T)) (UniProt Q96EB6); test: co-IP; Flag-tagged FL and DN-DBC1 overexpressed in 293 T cells; binding to endogenous SIRT1; non-transfected cells as controls
[2] = target: Flag-tagged recombinant SIRT1 (UniProt Q96EB6); test: pull-down; recombinant Flag-SIRT1 purified from 293 T cells incubated with mouse liver lysates mainly expressing DBC1 (FL) or DN-DBC1 (DN); precipitated with Flag antibody; only the target purified

Flag-tagged recombinant DN-DBC1 lacking the first 138 residues (from UniProt Q8N163 139-923) (domain or fragment)
binding [1]: no binding

endogenous DBC1 (full length) of mouse liver (from UniProt Q8VDP4 1-922)
binding [2]: binds
